Results are given in words; binding and its absence hold for the method and conditions named. In cells and extracts the contact can be indirect. Sequences can lack the tags named with a protein.
Target: T1, DRAM1-FLAG (human) (UniProt Q8N682)
T1 sequence: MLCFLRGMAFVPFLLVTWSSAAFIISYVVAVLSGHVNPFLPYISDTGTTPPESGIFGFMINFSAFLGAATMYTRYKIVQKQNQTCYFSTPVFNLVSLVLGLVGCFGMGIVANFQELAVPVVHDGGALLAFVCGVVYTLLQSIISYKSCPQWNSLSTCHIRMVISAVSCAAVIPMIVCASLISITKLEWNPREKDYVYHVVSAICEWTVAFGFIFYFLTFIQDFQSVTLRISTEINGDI
Test: co-IP; RIPA lysates of DRAM1-overexpressing H1975 and A549 cells; anti-FLAG agarose beads, 4 °C overnight; Western blot for ATP6V1D and ATP6V0D

binding: no binding
Substance: V-ATP6V0D (human (endogenous in H1975 and A549))

— publication PMC7498585
